Data as given in patent US20210310004.
The exact form of at least one protein or probe is not confirmed.

Biological target: GST-p53 (Homo sapiens) (UniProt P04637)
Assay: binding assay
Settings: N = 5-ethynyl-dU clicked (CuAAC) with benzyl-azide [26,28,35,56,57]; fluorescent Western-blot binding; stronger than starting library; TBST-MC (1 mM Mg, 1 mM Ca), dextran sulphate, click competitor, RT; purified recombinant protein; label: IRD800CW 5' (forward primer with C18 spacer); single-stranded DNA; letters built from the parent sequence and the stated change

“AGCCACGGAAGAACCAGAAACAAGATATACACGATGGGGGCACACCAAAGCACCGTTCGAAAGCAGAAGCGACAGCAACA [SEQ ID NO: 1 monoclone, benzyl-functionalized]”: binds.
